The list shows a part of the results. The main result of the screen is listed elsewhere. These columns were measured beside it and carry no call. For part of these data: Most of these compounds were active or inconclusive in the main read-out, so they are no random draw.

The nature of the first test: PubChem AID 1586. The settings on record: yeast two-hybrid polyglutamine protein interaction, reporter readout; measured here: averaged growth delta OD.
`COc1ccc([C@@H]2CC(=O)c3c(O)cc(O)cc3O2)cc1O` had a signal change (36 h minus 0 h) of 0.349.
On the same count and under the same terms, to `COC(=O)Nc1nc2ccc(Sc3ccccc3)cc2[nH]1` belongs 0.19; to `NC[C@H]1O[C@H](O[C@H]2[C@H](O)[C@@H](O[C@H]3O[C@H](CO)[C@@H](O)[C@H](N)[C@H]3O)[C@H](N)C[C@@H]2N)[C@H](O)[C@@H](O)[C@@H]1O`, 0.0101.
In turn, `C[C@]12CCC(=O)C=C1CCC1C2[C@@H](O)C[C@@]2(C)C1CC[C@]2(O)C(=O)CO` (some centres not stated) returned a signal change (36 h minus 0 h) of 0.121.
`CC(C)(C)NCC(O)c1cc(O)cc(O)c1` (configuration not stated) gave a signal change (36 h minus 0 h) of 0.056.
With `Oc1c(Cl)cc(Cl)c2cccnc12`, the signal change (36 h minus 0 h) was -0.0148.
`COC(=O)C1[C@H]2C[C@H]3c4[nH]c5ccccc5c4CCN3C[C@@H]2CC[C@@H]1O` (some centres not stated) returned a signal change (36 h minus 0 h) of 0.0199.
`CC(=O)N[C@@H](Cc1c[nH]c2ccccc12)C(N)=O` yielded a signal change (36 h minus 0 h) of 0.17.
Same read-out and setting: then `CCCSc1ccc2nc(NC(=O)OC)[nH]c2c1`, with 0.0804; and `CC12CCC(CC1)C(C)(C)O2`, with 0.119; and `CCOC(=O)OC(C)OC(=O)C1N2C(=O)C(NC(=O)[C@H](N)c3ccccc3)C2SC1(C)C` (some centres not stated), with 0.141.
Same read-out and setting: then `O=C(COc1ccc(Cl)cc1)N1CCN(Cc2ccc3c(c2)OCO3)CC1`, with 0.263; and `Nc1ccn(C2O[C@H](CO)[C@@H](O)[C@@H]2O)c(=O)n1` (some centres not stated), with 0.179; and `Cn1c(=O)c2[nH]c(C3CCCC3)nc2n(C)c1=O`, with 0.141.
Turning to `CCN(CC)CCNC(=O)c1ccc(N)cc1`, the signal change (36 h minus 0 h) was determined as 0.121.
Compound `CN(C)CCN(Cc1cccs1)c1ccccn1` came in with a signal change (36 h minus 0 h) of 0.346.
With `CC(Oc1ccccc1)C(=O)N[C@@H]1C(=O)N2[C@@H]1SC(C)(C)[C@@H]2C(=O)O` (some centres not stated), the signal change (36 h minus 0 h) is 0.0525.
In turn, `Cc1c(NC(=O)c2cccnc2)c(=O)n(-c2ccccc2)n1C` yielded a signal change (36 h minus 0 h) of 0.105.
`NC(N)=N/N=C\c1c(Cl)cccc1Cl`: the signal change (36 h minus 0 h) was determined as 0.152.
Still for that read-out and setting: then `COc1ccc(-c2cc(=O)c3c(O)cc(O[C@@H]4O[C@H](CO[C@H]5O[C@H](C)[C@@H](O)[C@H](O)[C@@H]5O)[C@@H](O)[C@H](O)[C@H]4O)cc3o2)cc1O`, with 0.265.
As to `CC(=O)NS(=O)(=O)c1ccc(N)cc1`, the signal change (36 h minus 0 h) came to 0.191.
Regarding `CC(=C(CCOP(=O)(O)O)SC(=O)c1ccccc1)N(C=O)Cc1cnc(C)nc1N`, the signal change (36 h minus 0 h) was 0.0813.
Still for that read-out and setting: then `COc1cnc(NS(=O)(=O)c2ccc(N)cc2)nc1`, with 0.0795.
The same measure, in the same setting: to `CCN1CCN(C(=O)NC(C(=O)NC2C(=O)N3C(C(=O)O)=C(CSc4nnnn4C)CSC23)c2ccc(O)cc2)C(=O)C1=O` (configuration not stated) belongs 0.155; to `CN/C(=C\[N+](=O)[O-])NCCSCc1ccc(CN(C)C)o1`, 0.0648; to `CC(C(=O)O)c1cccc(Oc2ccccc2)c1` (configuration not stated), 0.195.
Take `CC(COc1ccccc1)NC(C)[C@H](O)c1ccc(O)cc1` (some centres not stated): the signal change (36 h minus 0 h) amounted to 0.144.
Compound `CC1=C2C(=CO[C@H](C)[C@H]2C)C(=O)C(C(=O)O)=C1O` yielded a signal change (36 h minus 0 h) of 0.188.
`COc1ccc([C@@H]2CC(=O)c3c(O)cc(O[C@@H]4O[C@H](CO[C@H]5O[C@@H](C)[C@H](O)[C@@H](O)[C@H]5O)[C@@H](O)[C@H](O)[C@H]4O)cc3O2)cc1O`: the signal change (36 h minus 0 h) amounted to 0.24.
Take `CCOC(=O)[C@H](CCc1ccccc1)N[C@@H](C)C(=O)N1CCC[C@H]1C(=O)O`: the signal change (36 h minus 0 h) stood at 0.184.
Regarding `Clc1cccc(Cl)c1NC1=NCCN1`, the signal change (36 h minus 0 h) was 0.0743.
Take `COc1ccccc1OCC(O)COC(N)=O` (configuration not stated): the signal change (36 h minus 0 h) turned out to be 0.0658.
As to `CC1=C(/C=C/C(C)=C/C=C/C(C)=C/CO)C(C)(C)CCC1`, the signal change (36 h minus 0 h) was 0.19.
Same read-out and setting: then `CC(C(=O)O)c1ccc(-c2ccccc2)c(F)c1` (configuration not stated), with 0.169.
On to `O=C(O)CCCCC1CCSS1` (configuration not stated), for which the signal change (36 h minus 0 h) stood at 0.0096.
`Cn1c(=O)c2c(ncn2CC(O)CO)n(C)c1=O` (configuration not stated) registered a signal change (36 h minus 0 h) of 0.104.
Same read-out and setting: then `Cc1ccc(Cl)c(Nc2ccccc2C(=O)O)c1Cl`, with 0.0767.
The compound `CC(CNC(=O)c1ccccc1)C(=O)OCC(=O)[C@@]12OC(C)(C)O[C@@H]1CC1C3CCC4=CC(=O)C=C[C@]4(C)[C@@]3(F)[C@@H](O)C[C@@]12C` (some centres not stated) showed a signal change (36 h minus 0 h) of 0.181.
For the compound `C=C(C)[C@H]1CC=C(C(=O)O)CC1`, the signal change (36 h minus 0 h) was 0.084.

The nature of another test: enhancers of SMN2 over SMN1 splicing, cell-based, SMN2/SMN1 luciferase reporters (AID 1598). The settings on record: SMN2 vs SMN1 luciferase splicing reporter cells, at 10 µM; SMN1 luciferase ratio: measured here: SMN1 luciferase reporter average; SMN2 luciferase ratio: measured here: SMN2 luciferase reporter average, stronger effect = higher value. Background: A reporter such as luciferase makes a cellular process visible.
For the compound `COc1ccc([C@@H]2CC(=O)c3c(O)cc(O)cc3O2)cc1O`, the SMN2 luciferase ratio worked out at 1.35 and the SMN1 luciferase ratio worked out at 1.47.
Turning to `COC(=O)Nc1nc2ccc(Sc3ccccc3)cc2[nH]1`, the SMN2 luciferase ratio was determined as 1.09 and the SMN1 luciferase ratio is 0.93.
`NC[C@H]1O[C@H](O[C@H]2[C@H](O)[C@@H](O[C@H]3O[C@H](CO)[C@@H](O)[C@H](N)[C@H]3O)[C@H](N)C[C@@H]2N)[C@H](O)[C@@H](O)[C@@H]1O`: the SMN1 luciferase ratio was 0.8 and the SMN2 luciferase ratio is 0.92.
Consider `C[C@]12CCC(=O)C=C1CCC1C2[C@@H](O)C[C@@]2(C)C1CC[C@]2(O)C(=O)CO` (some centres not stated), for which the SMN2 luciferase ratio came to 0.81 and the SMN1 luciferase ratio was determined as 0.88.
As to `CC(C)(C)NCC(O)c1cc(O)cc(O)c1` (configuration not stated), the SMN1 luciferase ratio came to 0.9 and the SMN2 luciferase ratio came out at 0.93.
As to `Oc1c(Cl)cc(Cl)c2cccnc12`, the SMN1 luciferase ratio came out at 0.95 and the SMN2 luciferase ratio is 0.93.
Consider `COC(=O)C1[C@H]2C[C@H]3c4[nH]c5ccccc5c4CCN3C[C@@H]2CC[C@@H]1O` (some centres not stated), for which the SMN1 luciferase ratio was found to be 1.01 and the SMN2 luciferase ratio stood at 0.88.
The like results for `CC(=O)N[C@@H](Cc1c[nH]c2ccccc12)C(N)=O` were, in that order, 0.9 and 0.94.
In the case of `CCCSc1ccc2nc(NC(=O)OC)[nH]c2c1`, the SMN2 luciferase ratio came to 1.34 and the SMN1 luciferase ratio came out at 1.25.
Take `CC12CCC(CC1)C(C)(C)O2`: the SMN2 luciferase ratio was 0.86 and the SMN1 luciferase ratio was found to be 0.99.
Regarding `CCOC(=O)OC(C)OC(=O)C1N2C(=O)C(NC(=O)[C@H](N)c3ccccc3)C2SC1(C)C` (some centres not stated), the SMN1 luciferase ratio stood at 0.84 and the SMN2 luciferase ratio stood at 0.9.
Regarding `O=C(COc1ccc(Cl)cc1)N1CCN(Cc2ccc3c(c2)OCO3)CC1`, the SMN1 luciferase ratio was 0.86 and the SMN2 luciferase ratio stood at 0.86.
As to `Nc1ccn(C2O[C@H](CO)[C@@H](O)[C@@H]2O)c(=O)n1` (some centres not stated), the SMN1 luciferase ratio turned out to be 0.49 and the SMN2 luciferase ratio was 0.54.
For `Cn1c(=O)c2[nH]c(C3CCCC3)nc2n(C)c1=O`, the SMN1 luciferase ratio came out at 0.93 and the SMN2 luciferase ratio came out at 0.94.
The like results for `CCN(CC)CCNC(=O)c1ccc(N)cc1` were, in that order, 0.98 and 0.95.
With `CN(C)CCN(Cc1cccs1)c1ccccn1`, the SMN1 luciferase ratio came out at 0.92 and the SMN2 luciferase ratio amounted to 0.94.
Consider `CC(Oc1ccccc1)C(=O)N[C@@H]1C(=O)N2[C@@H]1SC(C)(C)[C@@H]2C(=O)O` (some centres not stated), for which the SMN2 luciferase ratio stood at 0.85 and the SMN1 luciferase ratio was determined as 0.81.
Consider `Cc1c(NC(=O)c2cccnc2)c(=O)n(-c2ccccc2)n1C`, for which the SMN2 luciferase ratio turned out to be 0.89 and the SMN1 luciferase ratio was found to be 0.94.
Regarding `NC(N)=N/N=C\c1c(Cl)cccc1Cl`, the SMN2 luciferase ratio amounted to 0.87 and the SMN1 luciferase ratio was found to be 0.8.
Take `COc1ccc(-c2cc(=O)c3c(O)cc(O[C@@H]4O[C@H](CO[C@H]5O[C@H](C)[C@@H](O)[C@H](O)[C@@H]5O)[C@@H](O)[C@H](O)[C@H]4O)cc3o2)cc1O`: the SMN2 luciferase ratio is 0.9 and the SMN1 luciferase ratio was found to be 0.97.
Consider `CC(=O)NS(=O)(=O)c1ccc(N)cc1`, for which the SMN2 luciferase ratio was found to be 1.02 and the SMN1 luciferase ratio is 0.96.
Taken in the same sequence, the figures for `CC(=C(CCOP(=O)(O)O)SC(=O)c1ccccc1)N(C=O)Cc1cnc(C)nc1N` were 0.94 and 0.83.
In the case of `COc1cnc(NS(=O)(=O)c2ccc(N)cc2)nc1`, the SMN2 luciferase ratio amounted to 0.8 and the SMN1 luciferase ratio turned out to be 0.81.
Turning to `CCN1CCN(C(=O)NC(C(=O)NC2C(=O)N3C(C(=O)O)=C(CSc4nnnn4C)CSC23)c2ccc(O)cc2)C(=O)C1=O` (configuration not stated), the SMN1 luciferase ratio came to 0.87 and the SMN2 luciferase ratio came out at 0.94.
As to `CN/C(=C\[N+](=O)[O-])NCCSCc1ccc(CN(C)C)o1`, the SMN2 luciferase ratio is 0.81 and the SMN1 luciferase ratio worked out at 0.94.
Taken in the same sequence, the figures for `CC(C(=O)O)c1cccc(Oc2ccccc2)c1` (configuration not stated) were 0.88 and 0.89.
Turning to `CC(COc1ccccc1)NC(C)[C@H](O)c1ccc(O)cc1` (some centres not stated), the SMN1 luciferase ratio turned out to be 0.93 and the SMN2 luciferase ratio stood at 0.95.
`CC1=C2C(=CO[C@H](C)[C@H]2C)C(=O)C(C(=O)O)=C1O`: the SMN1 luciferase ratio is 0.95 and the SMN2 luciferase ratio was 0.89.
Take `COc1ccc([C@@H]2CC(=O)c3c(O)cc(O[C@@H]4O[C@H](CO[C@H]5O[C@@H](C)[C@H](O)[C@@H](O)[C@H]5O)[C@@H](O)[C@H](O)[C@H]4O)cc3O2)cc1O`: the SMN2 luciferase ratio was 0.95 and the SMN1 luciferase ratio came to 0.92.
Regarding `CCOC(=O)[C@H](CCc1ccccc1)N[C@@H](C)C(=O)N1CCC[C@H]1C(=O)O`, the SMN2 luciferase ratio stood at 0.85 and the SMN1 luciferase ratio was found to be 0.8.
With `Clc1cccc(Cl)c1NC1=NCCN1`, the SMN2 luciferase ratio turned out to be 0.93 and the SMN1 luciferase ratio was 0.94.
With `COc1ccccc1OCC(O)COC(N)=O` (configuration not stated), the SMN2 luciferase ratio was determined as 0.36 and the SMN1 luciferase ratio came to 0.36.
Regarding `CC1=C(/C=C/C(C)=C/C=C/C(C)=C/CO)C(C)(C)CCC1`, the SMN1 luciferase ratio was 0.95 and the SMN2 luciferase ratio was found to be 0.84.
For the compound `CC(C(=O)O)c1ccc(-c2ccccc2)c(F)c1` (configuration not stated), the SMN1 luciferase ratio was 0.96 and the SMN2 luciferase ratio amounted to 0.99.
On to `O=C(O)CCCCC1CCSS1` (configuration not stated), for which the SMN1 luciferase ratio is 0.98 and the SMN2 luciferase ratio is 0.84.
The like results for `Cn1c(=O)c2c(ncn2CC(O)CO)n(C)c1=O` (configuration not stated) were, in that order, 0.84 and 0.98.
The like results for `Cc1ccc(Cl)c(Nc2ccccc2C(=O)O)c1Cl` were, in that order, 0.89 and 0.9.
Consider `CC(CNC(=O)c1ccccc1)C(=O)OCC(=O)[C@@]12OC(C)(C)O[C@@H]1CC1C3CCC4=CC(=O)C=C[C@]4(C)[C@@]3(F)[C@@H](O)C[C@@]12C` (some centres not stated), for which the SMN2 luciferase ratio was determined as 0.89 and the SMN1 luciferase ratio was 1.08.
As for `C=C(C)[C@H]1CC=C(C(=O)O)CC1`, the SMN1 luciferase ratio came out at 0.89 and the SMN2 luciferase ratio worked out at 0.89.

(Values after PubChem BioAssay.)
